Measurements taken from doi:10.1101/2024.03.27.586763.
No constants are given. Whether binding was seen depends on the method and setting. Binding seen in cells or lysates may run through a third protein. Some entries that bind do so weakly or less than the wild type. Tags and fused reporters may be left off the sequences shown.

Amino acid sequences for entries named in this document (tags omitted).
UniProt Q13490: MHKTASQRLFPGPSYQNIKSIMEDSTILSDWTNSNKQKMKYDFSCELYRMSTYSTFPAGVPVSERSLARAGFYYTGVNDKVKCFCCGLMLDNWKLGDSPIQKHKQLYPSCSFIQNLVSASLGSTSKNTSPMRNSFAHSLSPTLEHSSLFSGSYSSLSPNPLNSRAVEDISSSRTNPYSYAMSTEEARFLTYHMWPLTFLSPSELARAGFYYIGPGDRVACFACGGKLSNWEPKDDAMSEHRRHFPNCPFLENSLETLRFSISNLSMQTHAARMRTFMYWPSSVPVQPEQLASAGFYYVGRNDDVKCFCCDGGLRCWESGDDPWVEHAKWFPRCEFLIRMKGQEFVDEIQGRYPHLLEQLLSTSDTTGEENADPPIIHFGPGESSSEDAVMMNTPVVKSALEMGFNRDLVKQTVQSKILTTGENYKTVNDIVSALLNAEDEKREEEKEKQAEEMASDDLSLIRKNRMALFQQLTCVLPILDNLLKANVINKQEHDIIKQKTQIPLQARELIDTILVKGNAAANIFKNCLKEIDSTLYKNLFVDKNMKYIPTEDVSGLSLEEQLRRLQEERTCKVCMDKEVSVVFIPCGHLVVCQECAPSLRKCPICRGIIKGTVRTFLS

How the values were obtained:
[1] = target: T1, Flag-TRAF2 (UniProt Q12933); experiment: co-IP
T1 sequence: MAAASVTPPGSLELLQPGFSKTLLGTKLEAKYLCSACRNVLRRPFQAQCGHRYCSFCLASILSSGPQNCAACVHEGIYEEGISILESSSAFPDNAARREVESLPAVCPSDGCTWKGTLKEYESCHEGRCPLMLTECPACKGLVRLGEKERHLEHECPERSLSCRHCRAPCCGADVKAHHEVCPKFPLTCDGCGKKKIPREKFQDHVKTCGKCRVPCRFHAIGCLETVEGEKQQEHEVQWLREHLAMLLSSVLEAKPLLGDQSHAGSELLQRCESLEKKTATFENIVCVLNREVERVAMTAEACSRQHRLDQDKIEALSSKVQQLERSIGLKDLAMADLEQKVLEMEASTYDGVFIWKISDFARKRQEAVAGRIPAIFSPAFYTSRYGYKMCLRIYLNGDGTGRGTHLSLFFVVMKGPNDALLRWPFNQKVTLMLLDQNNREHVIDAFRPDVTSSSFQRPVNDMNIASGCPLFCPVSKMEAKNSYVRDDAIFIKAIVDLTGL

[2] = target: HA cIAP1 (pEBB-HA cIAP1) (UniProt Q13490); experiment: co-IP

B1: ZFAND6-Flag-Myc (protein, UniProt Q6FIF0 1-208)
chain: MAQETNHSQVPMLCSTGCGFYGNPRTNGMCSVCYKEHLQRQNSSNGRISPPATSVSSLSESLPVQCTDGSVPEAQSALDSTSSSMQPSPVSNQSLLSESVASSQLDSTSVDKAVPETEDVQASVSDTAQQPSEEQSKSLEKPKQKKNRCFMCRKKVGLTGFECRCGNVYCGVHRYSDVHNCSYNYKADAAEKIRKENPVVVGEKIQKI
In the case of B1, the binding [1] is reported as “binds” and the binding [2] is reported as “binds”.
